Measurements as given in paper PMC12866828.

The chains behind the UniProt entries cited, without tags or fusion partners. Residues count along the entry.
UniProt P50592: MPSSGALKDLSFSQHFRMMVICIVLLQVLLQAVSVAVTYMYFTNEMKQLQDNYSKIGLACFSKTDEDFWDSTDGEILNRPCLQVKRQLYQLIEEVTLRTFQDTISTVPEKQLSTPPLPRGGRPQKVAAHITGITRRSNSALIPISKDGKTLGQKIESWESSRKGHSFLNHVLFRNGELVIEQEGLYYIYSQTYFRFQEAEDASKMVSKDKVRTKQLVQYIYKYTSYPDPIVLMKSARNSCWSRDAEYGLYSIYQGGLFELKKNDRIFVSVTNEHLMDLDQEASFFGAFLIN
UniProt O70472, residues 21-1877: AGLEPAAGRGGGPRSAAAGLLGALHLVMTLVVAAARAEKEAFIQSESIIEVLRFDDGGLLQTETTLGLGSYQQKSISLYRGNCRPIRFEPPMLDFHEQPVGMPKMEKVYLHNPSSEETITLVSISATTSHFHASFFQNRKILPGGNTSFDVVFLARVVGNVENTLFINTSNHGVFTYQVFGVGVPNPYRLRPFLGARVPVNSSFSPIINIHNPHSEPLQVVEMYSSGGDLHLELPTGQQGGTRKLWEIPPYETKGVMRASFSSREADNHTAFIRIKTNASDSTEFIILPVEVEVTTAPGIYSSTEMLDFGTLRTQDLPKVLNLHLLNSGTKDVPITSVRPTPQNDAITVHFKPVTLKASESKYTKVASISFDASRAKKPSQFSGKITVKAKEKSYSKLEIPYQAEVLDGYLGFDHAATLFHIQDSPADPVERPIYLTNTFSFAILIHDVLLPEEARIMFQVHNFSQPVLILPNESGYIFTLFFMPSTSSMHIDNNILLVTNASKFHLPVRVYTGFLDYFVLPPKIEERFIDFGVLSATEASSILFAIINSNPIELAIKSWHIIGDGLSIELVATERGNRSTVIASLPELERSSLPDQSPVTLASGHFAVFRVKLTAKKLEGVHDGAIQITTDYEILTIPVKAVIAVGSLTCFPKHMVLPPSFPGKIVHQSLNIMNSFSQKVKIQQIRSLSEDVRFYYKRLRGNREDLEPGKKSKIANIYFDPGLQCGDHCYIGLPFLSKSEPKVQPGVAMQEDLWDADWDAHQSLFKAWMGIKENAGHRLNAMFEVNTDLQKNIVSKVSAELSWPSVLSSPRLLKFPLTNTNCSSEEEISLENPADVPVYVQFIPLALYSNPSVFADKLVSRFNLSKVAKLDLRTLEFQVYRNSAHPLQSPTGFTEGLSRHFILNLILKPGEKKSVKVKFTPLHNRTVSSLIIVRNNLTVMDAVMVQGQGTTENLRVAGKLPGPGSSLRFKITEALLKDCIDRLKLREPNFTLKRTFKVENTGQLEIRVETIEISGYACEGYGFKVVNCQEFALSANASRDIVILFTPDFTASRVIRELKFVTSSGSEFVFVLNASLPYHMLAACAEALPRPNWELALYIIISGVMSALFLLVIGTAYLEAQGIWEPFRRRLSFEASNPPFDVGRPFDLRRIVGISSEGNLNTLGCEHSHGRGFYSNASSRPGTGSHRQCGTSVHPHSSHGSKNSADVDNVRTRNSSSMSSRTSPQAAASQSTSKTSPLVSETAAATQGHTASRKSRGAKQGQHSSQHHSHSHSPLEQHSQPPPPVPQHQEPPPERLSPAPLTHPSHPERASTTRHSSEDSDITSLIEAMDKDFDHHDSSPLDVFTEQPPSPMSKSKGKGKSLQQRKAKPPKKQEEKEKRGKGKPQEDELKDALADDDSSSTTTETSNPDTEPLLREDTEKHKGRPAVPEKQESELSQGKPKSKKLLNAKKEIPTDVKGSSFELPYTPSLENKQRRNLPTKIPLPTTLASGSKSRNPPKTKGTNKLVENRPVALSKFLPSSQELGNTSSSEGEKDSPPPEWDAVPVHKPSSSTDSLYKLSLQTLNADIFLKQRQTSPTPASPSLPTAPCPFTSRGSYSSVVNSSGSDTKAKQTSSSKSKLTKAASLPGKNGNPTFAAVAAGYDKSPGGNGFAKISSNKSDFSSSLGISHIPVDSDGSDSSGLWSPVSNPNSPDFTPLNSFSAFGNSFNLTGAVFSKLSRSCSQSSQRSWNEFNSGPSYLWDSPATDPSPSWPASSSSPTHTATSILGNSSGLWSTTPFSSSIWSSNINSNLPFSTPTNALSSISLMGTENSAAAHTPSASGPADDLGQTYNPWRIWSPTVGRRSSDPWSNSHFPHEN

Molecular target: Tumor necrosis factor (TNF)‐related apoptosis‐inducing ligand (TRAIL) (mouse (endogenous in MLE-12)) (UniProt P50592)
Assay: affinity purification with mass spectrometry; MLE-12 cell lysates immunoprecipitated with a specific antibody (for TRAIL or TMEM131) or isotype antibody, protein A/G beads, 4 °C overnight, 5 washes with NP-40 lysis buffer, LC-MS/MS

In the case of TMEM131 (from UniProt O70472 21-1877), the binding is reported as “binds”.

No constants are given. Whether binding was seen depends on the method and setting. In cells and extracts the contact can be indirect. A yes stands for co-enrichment or nearness to the bait. Other partners may have been found.
